# Library screening results

Protein sequences, listed by entry. Tags and fused reporters are not part of them.
UniProt E9BF75, entry or part of it: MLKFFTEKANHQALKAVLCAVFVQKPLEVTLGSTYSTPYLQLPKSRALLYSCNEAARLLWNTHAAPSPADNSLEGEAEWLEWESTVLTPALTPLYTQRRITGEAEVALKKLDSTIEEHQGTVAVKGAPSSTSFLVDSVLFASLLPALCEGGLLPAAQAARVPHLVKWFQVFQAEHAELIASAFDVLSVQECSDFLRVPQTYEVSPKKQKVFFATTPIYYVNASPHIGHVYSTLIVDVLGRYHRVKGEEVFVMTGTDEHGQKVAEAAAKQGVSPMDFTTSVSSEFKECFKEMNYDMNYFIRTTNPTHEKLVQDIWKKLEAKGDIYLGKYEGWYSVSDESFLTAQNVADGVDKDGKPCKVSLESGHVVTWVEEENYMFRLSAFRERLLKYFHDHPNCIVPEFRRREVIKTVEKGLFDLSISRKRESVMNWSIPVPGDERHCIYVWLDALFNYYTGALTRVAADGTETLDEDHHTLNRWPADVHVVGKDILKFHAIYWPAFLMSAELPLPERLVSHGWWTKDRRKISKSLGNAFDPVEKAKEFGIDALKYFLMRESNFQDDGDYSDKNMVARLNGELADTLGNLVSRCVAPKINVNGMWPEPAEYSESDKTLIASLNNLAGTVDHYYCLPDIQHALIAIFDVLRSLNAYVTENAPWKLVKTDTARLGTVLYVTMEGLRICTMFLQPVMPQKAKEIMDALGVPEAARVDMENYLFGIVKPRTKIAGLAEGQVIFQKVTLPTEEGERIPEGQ

All values are in %. How 0% and 100% were set is not recorded. Most values in the screen are low, and negative values occur. The compounds are a random part of those screened. A dash means the value is not listed here; it may have been measured.

LdMetRS: 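Methionyl-tRNA synthetase (putative), Leishmania donovani (UniProt E9BF75). Primary screen of methionyl-tRNA synthetase; the read-out is not stated. The test concentration is not given. The values are filed as inhibition. Size under these conditions: about 68,000 compounds, about 24 of them at 50% or above in at least one test.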
Mtb heat-shock: 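Assay on Mycobacterium tuberculosis, filed only as a heat shock assay from Cornell; the read-out is not stated. The concentration is filed as 10 mM, unlikely as a test dose, so the dose is not known. Direction is inferred from retests: higher values go with stronger inhibition. About 69,000 compounds were tested under these conditions; 1.4% (about 930) showed 50% or more at least once.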

For Cc1ccoc1C(=O)N1C[C@@H](OCC2CC2)[C@H]2OCCC[C@H]21 the result was LdMetRS: 6.25%.
For Cn1nc(C#N)c2c1CN(C(=O)c1ccco1)CCC2 the result was LdMetRS: -3.425%; Mtb heat-shock: -13.72%.
For CC(C)CN1CC2(CCN(C(=O)c3cn4cccnc4n3)CC2)CC1=O the result was LdMetRS: 13.31%; Mtb heat-shock: 17.46%.
For Cc1ncc(CNC2CC(=O)N(CCc3ccc(F)cc3)C2)n1C (stereo not drawn) the result was LdMetRS: 8.696%; Mtb heat-shock: 9.954%.
For Cc1ccccc1-c1cncc(C2CCN(C(=O)CN(C)C)CC2)n1 the result was LdMetRS: 4.452%; Mtb heat-shock: -22.85%.
For Cn1ccc(C(=O)N2CCN(c3ccccn3)CC2)cc1=O the result was LdMetRS: 27.22%; Mtb heat-shock: -1.876%.
For Cc1cc(=O)n(CCNS(=O)(=O)c2ccccc2)cn1 the result was LdMetRS: 8.943%; Mtb heat-shock: -3.034%.
For CC(=O)NCCNC(=O)NCc1ccc(Br)cc1Cl the result was LdMetRS: 7.639%; Mtb heat-shock: 7.161%.
For CN(C)CC1CN(c2ccc(C#N)cn2)CCO1 (stereo not drawn) the result was LdMetRS: 12.6%; Mtb heat-shock: -29.33%.
For Cc1cccc(Nc2c(C#N)c(=O)n(C)c(=O)n2C)c1 the result was LdMetRS: 12.81%; Mtb heat-shock: 9.495%.
For CNc1cncc(C2CCCN2C(=O)CCn2ccnc2C(C)C)n1 (stereo not drawn) the result was LdMetRS: 10.59%; Mtb heat-shock: 11.69%.
For CC(=O)NCCc1ccc(S(=O)(=O)N(C)C(C)C(C)(C)C)s1 (stereo not drawn) the result was LdMetRS: 11.61%; Mtb heat-shock: -8.334%.
For COCCCN1CC2(CCCN(c3ncc4nc[nH]c4n3)C2)CCC1=O (stereo not drawn) the result was LdMetRS: 12.37%; Mtb heat-shock: -16.21%.
For CC[C@H](C)Nc1nccc(-c2cnc3sc(C)c(C)n3c2=O)n1 the result was LdMetRS: 2.098%; Mtb heat-shock: -19.86%.
For O=C1[C@@H]2CN(c3ncc(Cl)cc3F)C[C@]2(C(=O)O)CN1CC1CC1 the result was LdMetRS: 1.023%.
For Cc1nc(COC[C@H]2CC[C@H]3NCC[C@H]3O2)cs1 the result was LdMetRS: 20.29%.
For COc1ncccc1CNC(=O)c1cc(Cl)ccn1 the result was LdMetRS: 18.7%; Mtb heat-shock: 19%.
For CC(C)C(=O)N1CCN(Cc2cnn(C)c2)CC2(CC(=O)N(C)C2)C1.O=C(O)C(F)(F)F (stereo not drawn) the result was Mtb heat-shock: -10.32%.
For CO[C@H]1CN(CC2CCOCC2)[C@@H]2CCCO[C@H]12 the result was LdMetRS: 7.625%.
For Cc1ccc2c(n1)N(C)CCN(C(=O)NC(C)C)C2.O=C(O)C(F)(F)F the result was Mtb heat-shock: -23.89%.
For N#Cc1cccnc1Nc1ccc(N2CCC(C(N)=O)CC2)cc1 the result was LdMetRS: 12.54%; Mtb heat-shock: -5.665%.
For COc1cccc(F)c1-c1nc2c([nH]1)c(C1CC1)nn2C the result was LdMetRS: 3.495%; Mtb heat-shock: -1.687%.
For CN(CC(N)=O)Cc1csc(-c2ccc(F)cc2)n1 the result was LdMetRS: 14.57%; Mtb heat-shock: -18.04%.
For CCn1cc(CN(C)S(=O)(=O)c2ccc(Cl)cc2)cn1 the result was LdMetRS: 7.054%; Mtb heat-shock: -2.34%.
For CCn1ncc(C(=O)NCc2ccc(C)c(OC)c2)c1C(F)(F)F the result was LdMetRS: 20.41%; Mtb heat-shock: 11.18%.
For Cc1ccsc1C(=O)N1CCC2(CC1)C(=O)N(C)CCN2CC1CC1.O=C(O)C(F)(F)F the result was Mtb heat-shock: 3.794%.
For [H][C@@]12CCN(C(C)=O)C[C@]1([H])CCN(Cc1ccc3c(c1)OCO3)C(=O)C2 the result was Mtb heat-shock: -0.3089%.

3 of the entries, repeated:

SMILES	LdMetRS	Mtb heat-shock
CC(C)C(=O)N1CCN(Cc2cnn(C)c2)CC2(CC(=O)N(C)C2)C1.O=C(O)C(F)(F)F (stereo not drawn)	-	-10.32%
Cc1ccoc1C(=O)N1C[C@@H](OCC2CC2)[C@H]2OCCC[C@H]21	6.25%	-
CNc1cncc(C2CCCN2C(=O)CCn2ccnc2C(C)C)n1 (stereo not drawn)	10.59%	11.69%

Measurements from “University of Dundee, Small-Polar-MMV Screening Library” (2021), ChEMBL document CHEMBL3988442.